No constants are given. Whether binding was seen depends on the method and setting. In cells and extracts the contact can be indirect. A result given as binding can be weak or reduced; the word gives no strength.

The chains behind the UniProt entries cited, without tags or fusion partners. Where a name states a change or a piece, a line headed by the entry shows the natural chain unless it says otherwise.
UniProt Q61527: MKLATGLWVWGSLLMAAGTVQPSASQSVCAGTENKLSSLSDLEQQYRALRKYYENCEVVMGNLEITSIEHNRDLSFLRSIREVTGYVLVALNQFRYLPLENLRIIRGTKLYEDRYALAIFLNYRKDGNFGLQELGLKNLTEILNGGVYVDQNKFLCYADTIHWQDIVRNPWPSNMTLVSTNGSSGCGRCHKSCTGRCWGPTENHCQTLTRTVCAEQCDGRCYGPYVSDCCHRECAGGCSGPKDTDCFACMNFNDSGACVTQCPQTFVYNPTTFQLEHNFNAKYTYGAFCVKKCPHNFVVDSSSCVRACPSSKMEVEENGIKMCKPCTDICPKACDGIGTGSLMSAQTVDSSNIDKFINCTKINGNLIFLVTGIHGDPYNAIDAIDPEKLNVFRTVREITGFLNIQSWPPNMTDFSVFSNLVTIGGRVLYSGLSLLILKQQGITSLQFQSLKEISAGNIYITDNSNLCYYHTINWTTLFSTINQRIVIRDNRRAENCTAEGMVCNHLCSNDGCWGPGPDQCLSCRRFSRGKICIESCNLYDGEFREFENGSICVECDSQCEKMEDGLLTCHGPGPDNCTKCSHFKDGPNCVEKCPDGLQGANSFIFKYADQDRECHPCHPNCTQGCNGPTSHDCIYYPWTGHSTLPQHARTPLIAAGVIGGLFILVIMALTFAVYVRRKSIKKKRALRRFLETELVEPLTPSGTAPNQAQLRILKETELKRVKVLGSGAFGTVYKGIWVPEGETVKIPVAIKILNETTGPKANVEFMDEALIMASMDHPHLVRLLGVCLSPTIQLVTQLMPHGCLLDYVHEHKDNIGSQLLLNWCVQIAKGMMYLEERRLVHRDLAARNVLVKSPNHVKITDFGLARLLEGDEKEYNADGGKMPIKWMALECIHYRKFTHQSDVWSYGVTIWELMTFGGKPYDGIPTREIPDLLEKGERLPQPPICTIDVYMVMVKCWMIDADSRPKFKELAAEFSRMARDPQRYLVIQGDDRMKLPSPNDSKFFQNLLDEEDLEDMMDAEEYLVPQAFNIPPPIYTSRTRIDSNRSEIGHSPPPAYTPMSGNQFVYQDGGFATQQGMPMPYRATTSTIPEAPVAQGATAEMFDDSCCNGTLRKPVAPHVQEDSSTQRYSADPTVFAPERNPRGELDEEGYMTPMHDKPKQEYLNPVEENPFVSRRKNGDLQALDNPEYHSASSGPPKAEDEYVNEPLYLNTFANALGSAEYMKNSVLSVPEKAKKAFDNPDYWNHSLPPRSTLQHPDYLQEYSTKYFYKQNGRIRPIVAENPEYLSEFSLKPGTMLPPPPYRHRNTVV
UniProt Q61037: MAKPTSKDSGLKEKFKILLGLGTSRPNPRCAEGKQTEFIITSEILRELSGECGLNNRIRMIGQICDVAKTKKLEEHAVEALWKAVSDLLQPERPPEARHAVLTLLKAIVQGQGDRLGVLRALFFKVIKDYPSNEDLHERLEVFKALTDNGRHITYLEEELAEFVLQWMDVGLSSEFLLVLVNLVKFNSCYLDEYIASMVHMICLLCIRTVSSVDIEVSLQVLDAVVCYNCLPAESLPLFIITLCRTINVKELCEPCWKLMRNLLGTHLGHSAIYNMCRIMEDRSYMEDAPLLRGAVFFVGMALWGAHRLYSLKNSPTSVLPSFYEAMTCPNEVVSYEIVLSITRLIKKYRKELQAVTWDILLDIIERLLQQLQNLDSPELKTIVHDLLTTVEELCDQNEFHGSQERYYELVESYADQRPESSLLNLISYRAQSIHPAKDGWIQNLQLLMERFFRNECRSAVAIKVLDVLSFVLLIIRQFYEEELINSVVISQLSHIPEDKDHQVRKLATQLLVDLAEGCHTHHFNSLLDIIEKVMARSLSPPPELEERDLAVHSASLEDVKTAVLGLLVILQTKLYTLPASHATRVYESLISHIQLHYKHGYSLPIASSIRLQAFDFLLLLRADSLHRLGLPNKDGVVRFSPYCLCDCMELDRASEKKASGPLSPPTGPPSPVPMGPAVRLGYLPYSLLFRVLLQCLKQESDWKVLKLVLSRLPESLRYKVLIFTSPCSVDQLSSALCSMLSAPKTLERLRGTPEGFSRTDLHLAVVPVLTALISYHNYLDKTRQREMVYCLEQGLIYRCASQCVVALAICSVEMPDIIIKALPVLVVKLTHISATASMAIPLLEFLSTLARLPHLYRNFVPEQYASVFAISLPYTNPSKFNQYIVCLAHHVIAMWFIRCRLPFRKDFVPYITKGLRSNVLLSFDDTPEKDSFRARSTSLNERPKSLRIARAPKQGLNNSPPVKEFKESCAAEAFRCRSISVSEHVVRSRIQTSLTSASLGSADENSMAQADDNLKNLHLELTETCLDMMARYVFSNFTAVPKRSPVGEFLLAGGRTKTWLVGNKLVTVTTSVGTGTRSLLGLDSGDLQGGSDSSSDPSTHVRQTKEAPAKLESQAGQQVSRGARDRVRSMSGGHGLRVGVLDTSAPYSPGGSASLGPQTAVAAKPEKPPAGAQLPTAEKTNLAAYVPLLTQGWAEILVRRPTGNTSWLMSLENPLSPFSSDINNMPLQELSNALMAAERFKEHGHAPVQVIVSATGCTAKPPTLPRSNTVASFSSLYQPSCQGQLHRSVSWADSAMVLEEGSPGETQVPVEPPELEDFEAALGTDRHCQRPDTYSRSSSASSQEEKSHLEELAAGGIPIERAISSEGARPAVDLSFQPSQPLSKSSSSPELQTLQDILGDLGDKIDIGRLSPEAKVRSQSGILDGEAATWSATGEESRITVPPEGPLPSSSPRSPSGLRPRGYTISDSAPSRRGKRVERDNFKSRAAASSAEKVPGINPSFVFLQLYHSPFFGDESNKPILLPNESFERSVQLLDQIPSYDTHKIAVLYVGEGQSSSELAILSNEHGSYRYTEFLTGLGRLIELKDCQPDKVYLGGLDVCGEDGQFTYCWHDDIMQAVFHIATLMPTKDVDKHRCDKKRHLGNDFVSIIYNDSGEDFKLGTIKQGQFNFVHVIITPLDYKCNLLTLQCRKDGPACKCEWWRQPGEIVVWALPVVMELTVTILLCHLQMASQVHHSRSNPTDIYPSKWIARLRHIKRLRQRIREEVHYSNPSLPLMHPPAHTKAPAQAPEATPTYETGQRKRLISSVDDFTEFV

For the assay, the target named is receptor tyrosine kinase ErbB4 (mouse (endogenous in cortical synaptosomes of C57BL/6 mice)) (UniProt Q61527). Briefly: co-IP.

Take Tsc2 (from UniProt Q61037 1-1814): the binding result is recorded as “binds”.

The record behind these values is doi:10.1101/2021.11.12.468364.
